From PubChem BioAssay AID1508600 (Functional Genomics Laboratory (NCATS/FGL), 2020) come the findings set out here.

Out of some 53,000 sequences screened, about 3,700 (7%) were called active.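 How the source made its calls: active means gene knockdowns whose robust z-score for IL-1 alpha signal is at least 2 or at most -2, so actives lie on both sides; inactive means the rest.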 This is one part of the list.

A short description of this assay: Components of the Cytosolic LPS Sensing Pathway: Gene Identification via Genome-wide siRNA Screen.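 Further: robust z of the log signal after scaling to non-targeting control siRNA wells of the plate.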 The settings on record: RAW264.7 macrophages, IL-1a HTRF, actives lie on both sides, screened at 100 nM (by protocol), cells primed 5 h with Pam3CSK4 first. The essentials:
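RAW264.7 mouse macrophages reverse-transfected with single siRNAs (100 nM final) for 48h, primed with Pam3CSK4 for 5 hours, then transfected with LipidA for 24 hour. Supernatant IL-1a read by HTRF; values normalized to negative-control median, log-transformed robust z-scores.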
In the case of GCUUGUUUGUUAGAGCUAGTT against Gad1, the z-score is inactive: 0.297. To GGAAUAAACCUUGUGCAGUTT against Polh belongs inactive: -1.07; to CCUAAUGUUUACCACAGACTT against Mrps25, inactive: -0.867. For the sequence GGCGGAGGAUCUUACUAUCTT against Foxf1, the z-score is inactive: 1.05. Consider GGAAACCUGCUCAUAGUGGTT against Olfr1188, for which the z-score is inactive: 0.54. To GCAACCUGAGGAAUUCAAUTT against Radx belongs inactive: 0.918; to GGAGAGACCUAAAUCUCACTT against Gp9, inactive: 1.78; to CCACUAUGCUUCUUGGAAUTT against Serpini2, inactive: -0.73. Under CCUCCUUUGGACAACGGGUTT against Cyp7a1 stands inactive: -1.34. Regarding GCUCAUAAUUACAUCACCATT against H3c15, the z-score is inactive: -1.22. Under GGUCAUGGCUGGAUUUCUUTT against Olfr1462 stands active: -2.42; under GCAGAAAUCUGCCCAGCAGTT against Svbp, inactive: -0.104.

As to GGAGAUUCUAGAUCAUCUATT against Phldb2, the z-score is inactive: 0.44. To GGAUUAUCUUACAAUGUGGTT against Adam10 belongs inactive: 0.124. GGCAGAGCUUGGAGUAUCUTT against Gtpbp4: the z-score is inactive: 1.31. To GCAUGGCACUUUUUUAUACTT against Olfr1535 belongs inactive: 0.371; to GAUGUACUUGAUAAAGCCUTT against Ugt2b37, active: 3.68.

As for GGGUCAAAUCUGACUGCAUTT against Klf10, the z-score is inactive: 0.501. To CCACUGAAGUAGUUUCCUATT against Nipsnap3b belongs inactive: -0.219. Regarding GGGUGAUGGACAUAAAUGATT against Pcdhb17, the z-score was inactive: -1.07.

On to GGUAUGCAGUGAAGAGGAUTT against Paqr9, for which the z-score was active: 2.52. Regarding GGACCAAUGCACAGAAGUATT against Jkamp, the z-score is inactive: -0.183.

With GCUUGACGAACAGGUACUGTT against Pakap, the z-score was inactive: 0.124. To GGUUCCUUACCUAUUCCUATT against Tmtc1 belongs inactive: 0.005; to GCUUCAUUUAGCUUUAACUTT against Tpp2, inactive: -1.94. Under GGUCUUUGUUAAGAAUCCUTT against Myo1f stands inactive: -0.496. To GGUGUGGGUGACCUUUAUCTT against Tmem205 belongs inactive: -1.22.

For GGAAGAGAAAACAACAGUUTT against Phactr4, the z-score was inactive: -1.26.

CCUUGUAUCCUUAAUCCUCTT against Ppt1: the z-score was inactive: 0.613. “GCUACACAUGGGAACUAACTT against 4631405J19Rik”: the z-score is inactive: 1.51. To UACAACCCGAAUGAAUCGUTT against Olfr129 belongs inactive: 0.204; to CCGAAAAUGUGGUAAAGUATT against Smg1, inactive: 0.948; to GGGCUUUUAAUAGAGGUAATT against Rras2, inactive: 0.351. To UGAUCGAGAAUGAACUUACTT against Gm5414 belongs inactive: 0.925; to GCUUUACUCUAAUUGAUGUTT against Chmp4c, inactive: -0.58; to CCAGUUGAGUCACUUACUGTT against Borcs7, inactive: 0.667. Under GGAGAUAACAGAUCUGUUUTT against Fam114a2 stands inactive: -0.843; under GCACAAUCCCAACUUGGAATT against Retnlg, inactive: 1.72. On to GCUGUCUGAUUGGGUCCUUTT against Lag3, for which the z-score is inactive: -0.343. To CCAUCUACACUUCCCUGCATT against BC048403 belongs inactive: 0.389; to GGAAAGGUAAUGCAUCACATT against Rev3l, inactive: -1.68. To GGCUGAGUCCUAAUAGCCUTT against Celf5 belongs inactive: -0.487. To GCUGUUAAGUAAUGACAGATT against Chst7 belongs inactive: 1.54. With GUUCUUGGCAACAUGGCAGTT against Olfr551, the z-score was inactive: -0.692.

On to GCAUCUCGUGAUAUAUAAGTT against Nudt9, for which the z-score was inactive: 0.11.

Turning to GCAGAAGGUACUACUAUCGTT against Rcsd1, the z-score was inactive: 0.669. Under CCCACAAGUGUAAAGAUCGTT against Ebag9 stands inactive: 0.377; under GCGGAUCUGCUUUUUGCACTT against Ttc14, inactive: -0.105. To GGUGAUAAAGGGCAAAUGATT against Crls1 belongs inactive: -1.04. Turning to CCGUAGUGGUAAACCUGGATT against Gcg, the z-score was inactive: 0.065. To GGUGAUGUUCCCUGUUUUCTT against Gstt1 belongs inactive: 0.547; to GCAUAUGAGAUAGUUAACATT against Ces2g, inactive: -0.249. Under AUCAGUGGGUUAAAUAAAGTT against Cox11 stands inactive: 0.069. To GGGUUUUCUCAUUGUCUUUTT against Rce1 belongs inactive: -1.91; to GGACAAACAGAACACAGUGTT against Ngfr, inactive: -0.986. For the sequence GGUAGUGGACCUGACCUAUTT against Hectd3, the z-score was inactive: 0.00204.

Turning to GGGAUGUGAGCUUGGACUUTT against Phox2b, the z-score is inactive: 0.0311. Regarding GGACAGGAAUGCAUUUGUCTT against Cyfip2, the z-score is inactive: -0.98. Under CGAGAUCAUCUCAAAUAUCTT against Man2a1 stands inactive: -0.0408; under AUGCAUGAAAUCAUGUUGATT against Ndufa4, inactive: 0.0789; under GGCCAAAGGCUCAGAUGAUTT against Hic2, inactive: -0.955. Under GGUUAAAAGCCAUGUGUAATT against Pggt1b stands inactive: -0.151; under GGUUUUCACUGCUAUAACATT against Cers6, inactive: -0.446; under “GGAUGUUUGGACAUCAUUUTT against 2610002M06Rik”, inactive: 0.204. Take GGAGGUGAACAAUAUCUUCTT against Klf5: the z-score is inactive: -0.334. Regarding GGUGGAUGAGGACACUAUCTT against Hs6st1, the z-score is inactive: 1.88. Turning to CGAACUACCAGACAUGACUTT against Mier3, the z-score is inactive: -1.34. To GGUUAGAGAUCUUUUGAAATT against St14 belongs inactive: -0.333. Under GUGAUUGGGAACCUGUUUATT against Paqr6 stands inactive: -1.35. For UACAACCCACCUUUUAAGUTT against Tusc1, the z-score was inactive: 0.863. To CCAGGUAAACAUUGCUACUTT against Mpdz belongs inactive: 0.551; to GCUUCUCAAAUAAACAGCATT against Hexa, inactive: -1.06; to GGUCCAACGAUAUGUUGACTT against Cyp2c67, inactive: 1.27. In the case of CCCGUCUUACUGCUCUUCUTT against Slc22a13, the z-score is inactive: 0.198.

GGACUUCAGAGUGGACAUUTT against Sec16b: the z-score was inactive: -0.19. To CCUCAUCAAAGUCCGUCUATT against Slc25a45 belongs inactive: -0.117; to CCAUCACCUCUUUGGAACUTT against Zfp579, inactive: -0.669. To GCGAAACAGACACUUCGGUTT against Dlgap5 belongs inactive: 0.595; to GGGAAUACAUUCAUUAUCATT against Sema3c, inactive: -0.773; to CCGUCUAUACCUUAAUUGATT against Ifnlr1, inactive: -0.0183. Under GGCAUUUCCGACAGAGAUGTT against Cpne4 stands inactive: -1.28. Regarding CCUAAUCAGUGUUAAGUACTT against Atrnl1, the z-score was inactive: 0.656. To GGCAUCUGUUAUUGAAGUGTT against Vit belongs inactive: 1.12; to GCACUCGGCCAUAAAGUGUTT against Phkb, inactive: 0.879.

As for GGAGGAUGCUGAAAUUAUUTT against Atp6v0a1, the z-score was inactive: -0.833.

Take GGGACCAAGGGAUAAACCATT against Atxn7l1: the z-score is inactive: -1.04. To GGACUGUACUAUGGCUCUCTT against Nt5m belongs inactive: 0.135; to GCCUGAUGGUGCUAAGACUTT against Olfr854, inactive: 1.48; to GCGUAUUUGAGAAUUUAGATT against Atrx, inactive: -0.659.

On to UGUUCCUAGGUCAGCUACUTT against Olfr1200, for which the z-score is inactive: -1.54. To CCAAUCCUGUGAGAGCAUGTT against Tectb belongs inactive: 0.244; to GGGACCUCUACAGAGAUGUTT against Zfp113, inactive: 1.58. To GGAGGGUUUGCUUGAUGUUTT against Nyap1 belongs inactive: -0.00391; to “GGCUGAAUGUCGCUUAGAGTT against 9030612E09Rik”, inactive: -0.875; to GCUAGAGGUGACUGAUGUCTT against Tti1, inactive: -1.26. For the sequence GGAACACUAUCUCACCUUUTT against Psd2, the z-score was inactive: -0.0667. Under GCCAUGAAACUUCAUGCUGTT against Spink4 stands inactive: -0.0377. To GGAGCUGAAUGACCGCUUUTT against Vim belongs inactive: -0.0679; to CUUUCUUGCCGUAUUUUACTT against Olfr1287, inactive: -0.569. Under CUCCCUGGCAUUAAUCCGUTT against Tepp stands inactive: 0.0788; under GCAUGAAUAUUCCUCGUGATT against LOC433501, inactive: -0.442; under GGCUUUGUAUCCUUAUGUATT against Setd1b, inactive: -0.736. With GCAGGGAUCUGGAUUUAAUTT against Arf5, the z-score was active: 3.37. GGUAAAACAUUGUUUAGACTT against Cdk12: the z-score was inactive: -1.1.

Consider GGAACAAAAGGUGAUCGUGTT against Col25a1, for which the z-score was inactive: -1.74. Take GGUAUGUCGCCAUCUGCUUTT against Olfr1342: the z-score was inactive: 0.733.
